# Results are given in words; binding and its absence hold for the method and conditions named. Some binding calls cover weakened binding; strength is not graded here.
# T1: KAAG1 antigen on the surface of cancer cell lines (SKOV-3, OV-90, TOV-21G, OVCAR-3, TOV-112D, WIL2-S, A375, SK-MEL5, A-498) (human) (UniProt Q9UBP8)
# T1 sequence: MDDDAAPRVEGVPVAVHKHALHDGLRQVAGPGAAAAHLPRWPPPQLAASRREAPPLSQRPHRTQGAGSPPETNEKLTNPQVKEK
# B1: mouse 3D3 anti-KAAG1 antibody (antibody, V domains shown)
# VH: EVQLQQSVAELVRPGASVTLSCKASGYIFTDYEIHWVKQTPVHGLEWIGVIDPETGNTAFNQKFKGKATLTADISSSTAYMELSSLTSEDSAVYYCMGYSDYWGQGTTLTVSS
# VL: DIVMTQSPSSLAVSIGQKVTMNCKSSQSLLNSNFQKNFLAWYQQKPGQSPKLLIYFASTRESSIPDRFIGSGSGTDFTLTISSVQAEDLADYFCQQHYSTPLTFGAGTKLELK
# Target: T1, KAAG1 antigen on the surface of cancer cell lines (SKOV-3, OV-90, TOV-21G, OVCAR-3, TOV-112D, WIL2-S, A375, SK-MEL5, A-498) (human)
# Experiment: flow cytometry on SKOV-3 cells, anti-mouse IgG-FITC
binder,measurement,value
B1,binding,binds

# — US20120128661A1 (ALETHIA BIOTHERAPEUTICS, published 2012)
